PubChem BioAssay AID1671195 | Yale University, 2021
Here is one part, drawn at random, of about 22,000 reagents tested. About 1,510 of all reagents (6.9%) count as active. 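Active includes knockdowns raising or lowering LDL uptake; positive z-scores mean more uptake, negative mean less.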

- Test: 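Knockdowns that increase or decrease uptake of fluorescent LDL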 (primary screen)
- Cell system: human Huh7 hepatoma cells
- Reagents: siRNA pool against human genes, 18 nM
- Timing: about 2 to 2.5 days of knockdown, then 8 h LDL uptake
- Challenge: DiI-labelled LDL at 30 µg/ml for 8 h, in lipoprotein-deficient serum medium
- Detection: 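Per-cell DiI-LDL intensity by automated imaging; well means scaled to the plate median and given as a robust z-score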
- Direction: robust z-score: higher = more LDL uptake after knockdown
- Rule for the call: 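a gene counts as active if at least two replicate z-scores exceed ±2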

The opening 7 records, to show the layout:
no.	target	robust z-score, replicate 1	robust z-score, replicate 2	robust z-score, replicate 3	outcome
1	LOC440105 (retired record) (GeneID 440105)	-0.527	-0.17	0.0386	inactive
2	LINC01554 (GeneID 202299)	0.0968	0.113	0.163	inactive
3	LINC00928 (GeneID 283761)	1.38	0.606	0.207	inactive
4	NUDT2 (GeneID 318)	-0.993	-0.628	-0.68	inactive
5	PGM1 (GeneID 5236)	-0.558	0.241	-0.537	inactive
6	C3orf80 (GeneID 401097)	-1.39	-1.28	-1.41	inactive
7	PLEKHS1 (GeneID 79949)	0.78	0.983	0.673	inactive

The listing, repeating the preview:
no.	target	robust z-score, replicate 1	robust z-score, replicate 2	robust z-score, replicate 3	outcome
1	LOC440105 (retired record) (GeneID 440105)	-0.527	-0.17	0.0386	inactive
2	LINC01554 (GeneID 202299)	0.0968	0.113	0.163	inactive
3	LINC00928 (GeneID 283761)	1.38	0.606	0.207	inactive
4	NUDT2 (GeneID 318)	-0.993	-0.628	-0.68	inactive
5	PGM1 (GeneID 5236)	-0.558	0.241	-0.537	inactive
6	C3orf80 (GeneID 401097)	-1.39	-1.28	-1.41	inactive
7	PLEKHS1 (GeneID 79949)	0.78	0.983	0.673	inactive
8	PGLYRP3 (GeneID 114771)	-2.16	-2.01	-2.43	active
9	TBPL2 (GeneID 387332)	0.494	0.227	0.103	inactive
10	FLJ42393 (GeneID 401105)	-1.5	-1.45	-1.41	inactive
11	ERLIN1 (GeneID 10613)	0.872	-0.0635	1.95	inactive
12	SEC24D (GeneID 9871)	-0.48	-0.585	0.293	inactive
13	ENDOD1 (GeneID 23052)	0.552	0.696	-0.645	inactive
14	PMS2P3 (GeneID 5387)	-0.219	0.311	0.207	inactive
15	OR6A2 (GeneID 8590)	0.421	-1.53	-1.29	inactive
16	FAM171B (GeneID 165215)	-0.7	-1.37	-1.61	inactive
17	LOC388481 (retired record) (GeneID 388481)	1.01	1.23	0.624	inactive
18	LOC439911 (retired record) (GeneID 439911)	-0.602	-0.161	-0.505	inactive
19	STT3B (GeneID 201595)	-0.52	-0.108	-0.0618	inactive
20	TAP2 (GeneID 6891)	-0.502	-0.118	-0.668	inactive
21	PARD6B (GeneID 84612)	0.846	1.28	1.05	inactive
22	SH3GLB1 (GeneID 51100)	0.89	-0.0704	0.967	inactive
23	OR13D1 (GeneID 286365)	0.365	0.0718	0.316	inactive
24	SPTY2D1 (GeneID 144108)	0.397	0.99	0.771	inactive
25	CBS (GeneID 875)	-0.985	-0.867	-0.963	inactive
26	SCPEP1 (GeneID 59342)	0.148	0.861	0.43	inactive
27	FAS (GeneID 355)	-0.503	-1.47	-0.958	inactive
28	LOC441798 (retired record) (GeneID 441798)	1.5	1.37	1.72	inactive
29	IKBKE (GeneID 9641)	0.719	0.189	0.0322	inactive
30	UTP6 (GeneID 55813)	-0.55	-1.64	-0.844	inactive
31	DMXL1 (GeneID 1657)	-0.417	-1.79	-0.592	inactive
32	IL12B-AS1 (GeneID 285626)	-0.543	-1.06	-0.883	inactive
33	ERF (GeneID 2077)	0.937	0.339	2.58	inactive
34	HVCN1 (GeneID 84329)	-0.748	-0.922	-1.28	inactive
35	SMIM22 (GeneID 440335)	-0.123	-0.241	-0.526	inactive
36	ADCY8 (GeneID 114)	-0.637	-0.403	-1.02	inactive
37	LOC389394 (retired record) (GeneID 389394)	1.16	1.01	1.46	inactive
38	MRPL36 (GeneID 64979)	-0.211	-0.715	-0.273	inactive
39	ST6GALNAC1 (GeneID 55808)	-0.494	-0.514	-0.448	inactive
40	STARD7-AS1 (GeneID 285033)	-0.5	-0.682	-0.778	inactive
41	NHSL1 (GeneID 57224)	2.1	1.95	0.646	active
42	PLK4 (GeneID 10733)	1.56	1.15	0.268	inactive
43	LRRC14 (GeneID 9684)	0.388	0.551	-1.56	inactive
44	SOX6 (GeneID 55553)	-0.571	-0.262	-0.719	inactive
45	LY75 (GeneID 4065)	-0.942	-1.03	-1.08	inactive
46	IL33R (GeneID 9173)	0.939	0.178	0.583	inactive
47	LOC151273 (retired record) (GeneID 151273)	2.33	0.908	1.03	inactive
48	BAG5 (GeneID 9529)	-0.768	-0.732	-0.555	inactive
49	RALGPS2 (GeneID 55103)	2.07	1.63	1.76	inactive
50	USP26 (GeneID 83844)	-0.513	-0.765	-0.0846	inactive
51	EGF (GeneID 1950)	-0.71	1.41	0.1	inactive
52	ETF1 (GeneID 2107)	0.852	0.887	0.619	inactive
53	PLEKHA8 (GeneID 84725)	-0.783	-0.922	-1.04	inactive
54	CCER1 (GeneID 196477)	-1.97	-1.7	-0.861	inactive
55	MYCT1 (GeneID 80177)	0.463	0.513	0.353	inactive
56	SMLR1 (GeneID 100507203)	-0.0121	0.271	0.27	inactive
57	GUSB (GeneID 2990)	-1.5	-0.817	-1.04	inactive
58	LOC442386 (retired record) (GeneID 442386)	-0.553	0.436	-0.197	inactive
59	NXF3 (GeneID 56000)	-1.14	-1.71	-1.61	inactive
60	DHFR (GeneID 1719)	-0.624	-0.499	-0.86	inactive
61	MFN1 (GeneID 55669)	0.252	-0.443	0.222	inactive
62	OR10S1 (GeneID 219873)	0.589	-0.16	-0.289	inactive
63	WDR27 (GeneID 253769)	2.32	1.55	1.86	inactive
64	SERTAD1 (GeneID 29950)	-2.07	0.364	-0.274	inactive
65	LOC440172 (retired record) (GeneID 440172)	-0.694	-0.945	-1.15	inactive
66	SEPTIN4 (GeneID 5414)	-0.0717	-1.21	-0.912	inactive
67	CCDC93 (GeneID 54520)	1.25	0.34	1.2	inactive
68	TIMM44 (GeneID 10469)	-0.308	0.38	0.197	inactive
